The list shows a part of the results.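 Rule for the calls: active = probability of classifying as wild-type above 0.505; inactive = 0.505 or below.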 Most values come without repeats; read them as rough.
Tested on: SORL1-/- neural progenitor cells (hiPSC WTSIi004-B derived)
Assay: probability of classification as wild-type phenotype (neural network, relative to DMSO-treated WT vs SORL1-/- controls) (fraction); higher = more similar to wild-type morphology (phenotypic rescue)
Details: 24 h
[1] = 1000 nM, SORL1-/- sub-clone: WC7
[2] = 1000 nM, SORL1-/- sub-clone: XE10
[3] = 100 nM, SORL1-/- sub-clone: WB8
[4] = 300 nM, SORL1-/- sub-clone: WB8
[5] = 300 nM, SORL1-/- sub-clone: WC7
[6] = 300 nM, SORL1-/- sub-clone: XE10
[7] = 100 nM, SORL1-/- sub-clone: WC7
[8] = 100 nM, SORL1-/- sub-clone: XE10
[9] = 1000 nM, SORL1-/- sub-clone: WB8

Measured: probability

CCN1CCN(Cc2ccc(Nc3ncc(F)c(-c4cc(F)c5nc(C)n(C(C)C)c5c4)n3)nc2)CC1.CS(=O)(=O)O
active: [1] 0.658

COc1cc2c3cc1Oc1c(OC)c(OC)cc4c1[C@@H](Cc1ccc(O)c(c1)Oc1ccc(cc1)C[C@@H]3N(C)CC2)N(C)CC4 [Berbamine]
active: [1] 0.999

CCN1CCN(Cc2ccc(Nc3ncc(F)c(-c4cc(F)c5nc(C)n(C(C)C)c5c4)n3)nc2)CC1 [Abemaciclib]
active: [2] 0.551

CC1=C(/C=C/C(C)=C/C=C/C(C)=C/CO)C(C)(C)CCC1 [Retinol]
active: [2] 0.708

CC[C@@]1(O)C(=O)OCc2c1cc1n(c2=O)Cc2cc3c(CN(C)C)c(O)ccc3nc2-1.Cl [Topotecan hydrochloride]
active: [3] 0.751 | [4] 0.727 | [5] 0.753 | [6] 0.898 | [1] 0.986 | [2] 0.675

CC(C)C[C@H](NC(=O)CNC(=O)c1cc(Cl)ccc1Cl)B1OC(=O)CC(CC(=O)O)(C(=O)O)O1 (stereo partly specified)
active: [3] 0.999 | [7] 0.928 | [8] 0.738 | [4] 0.936 | [5] 0.904 | [6] 0.932 | [9] 0.671 | [1] 0.754

Cl.N=c1ccn2c(n1)O[C@H]1[C@H](O)[C@@H](CO)O[C@H]12 [Cyclocytidine hydrochloride]
active: [3] 0.747 | [7] 0.733 | [5] 0.719 | [6] 0.983 | [9] 0.747 | [2] 0.606
inactive: [4] 0.502

CC[C@@]1(O)C(=O)OCc2c1cc1n(c2=O)Cc2cc3cc(O)ccc3nc2-1 [10-Hydroxycamptothecin]
active: [3] 0.758 | [7] 0.882 | [8] 0.692 | [4] 0.999 | [6] 0.8 | [9] 0.998 | [1] 1

C=CC(=O)Nc1cccc(Oc2nc(Nc3ccc(N4CCN(C)CC4)cc3)nc3ccsc23)c1 [Olmutinib]
active: [8] 0.659 | [4] 0.617 | [9] 0.999 | [2] 0.741

CC[C@@]1(O)C(=O)OCc2c1cc1n(c2=O)Cc2cc3c(CN(C)C)c(O)ccc3nc2-1 [Topotecan]
active: [3] 0.918 | [7] 0.871 | [8] 0.794 | [4] 0.923 | [5] 0.855 | [6] 0.745 | [9] 0.881 | [1] 0.993

CC(C)C[C@H](NC(=O)[C@H](CCc1ccccc1)NC(=O)CN1CCOCC1)C(=O)N[C@@H](Cc1ccccc1)C(=O)N[C@@H](CC(C)C)C(=O)[C@@]1(C)CO1 [Carfilzomib]
active: [7] 0.939 | [8] 0.773 | [5] 0.92 | [9] 0.95 | [1] 0.976 | [2] 0.887

CC[C@]1(O)C[C@H]2C[N@@](CCc3c([nH]c4ccccc34)[C@@](C(=O)OC)(c3cc4c(cc3OC)N(C)[C@H]3[C@@](O)(C(=O)OC)[C@H](OC(C)=O)[C@]5(CC)C=CCN6CC[C@]43[C@@H]65)C2)C1.O=S(=O)(O)O [Vinblastine sulfate]
active: [3] 0.998
inactive: [7] 0.5

Part of the list above in order of count of non-hydrogen atoms, ascending:
CC1=C(/C=C/C(C)=C/C=C/C(C)=C/CO)C(C)(C)CCC1 [Retinol]
active: [2] 0.708

CC[C@@]1(O)C(=O)OCc2c1cc1n(c2=O)Cc2cc3c(CN(C)C)c(O)ccc3nc2-1 [Topotecan]
active: [3] 0.918 | [7] 0.871 | [8] 0.794 | [4] 0.923 | [5] 0.855 | [6] 0.745 | [9] 0.881 | [1] 0.993

CCN1CCN(Cc2ccc(Nc3ncc(F)c(-c4cc(F)c5nc(C)n(C(C)C)c5c4)n3)nc2)CC1 [Abemaciclib]
active: [2] 0.551

Next part.

CC[C@@H]1C(=O)N(C)c2cnc(Nc3ccc(C(=O)N[C@H]4CC[C@H](N5CCN(CC6CC6)CC5)CC4)cc3OC)nc2N1C(C)C [Volasertib]
active: [3] 0.631 | [4] 0.791 | [5] 0.748

C/C=C1\NC(=O)[C@H]2CSSCC/C=C/[C@H](CC(=O)N[C@H](C(C)C)C(=O)N2)OC(=O)[C@H](C(C)C)NC1=O [Romidepsin]
active: [3] 0.684 | [7] 0.681 | [4] 0.508

COc1cc([C@@H]2c3cc4c(cc3[C@@H](O[C@@H]3O[C@@H]5CO[C@@H](c6cccs6)O[C@H]5[C@H](O)[C@H]3O)[C@H]3COC(=O)[C@H]23)OCO4)cc(OC)c1O [Teniposide]
active: [3] 0.953 | [7] 0.785 | [5] 0.925 | [6] 0.88 | [9] 0.653 | [2] 0.948

Nc1nc(Cl)nc2c1ncn2[C@@H]1O[C@H](CO)[C@@H](O)[C@@H]1F [Clofarabine]
active: [7] 0.583 | [8] 0.669 | [5] 1 | [6] 0.512 | [9] 0.826 | [1] 0.996

COc1cccc2c1C(=O)c1c(O)c3c(c(O)c1C2=O)C[C@@](O)(C(=O)CO)C[C@@H]3O[C@H]1C[C@H](N)[C@H](O)[C@H](C)O1.Cl [Doxorubicin hydrochloride]
active: [7] 0.995 | [4] 0.6 | [6] 0.78 | [9] 0.982 | [1] 0.994 | [2] 0.84

CC(=O)c1c(C)c2cnc(Nc3ccc(N4CCNCC4)cn3)nc2n(C2CCCC2)c1=O.O=S(=O)(O)CCO [Palbociclib Isethionate]
active: [5] 0.596
inactive: [7] 0.502

COc1cc(NS(C)(=O)=O)ccc1Nc1c2ccccc2nc2ccccc12 [Amsacrine]
active: [7] 0.814 | [5] 0.66 | [6] 0.891 | [1] 0.737 | [2] 0.663

O=C1c2c(O)ccc(O)c2C(=O)c2c(NCCNCCO)ccc(NCCNCCO)c21 [Mitoxantrone]
active: [3] 0.999 | [7] 0.625 | [8] 0.973 | [4] 0.558 | [9] 0.996 | [1] 0.758 | [2] 0.661

Cn1ncnc1[C@H]1C2=c3c(cc(F)cc3=N[C@@H]1c1ccc(F)cc1)C(=O)NN2 [Talazoparib]
active: [8] 0.882 | [9] 0.67 | [2] 0.707

COc1cccc2c1C(=O)c1c(O)c3c(c(O)c1C2=O)C[C@@](O)(C(=O)CO)C[C@@H]3O[C@H]1C[C@H](N)[C@@H](O)[C@H](C)O1.Cl [Epirubicin hydrochloride]
active: [3] 0.673 | [8] 0.517 | [5] 0.996 | [6] 0.674 | [9] 0.98 | [1] 0.977 | [2] 0.971

COc1cc([C@@H]2c3cc4c(cc3[C@@H](O[C@@H]3O[C@@H]5CO[C@@H](C)O[C@H]5[C@H](O)[C@H]3O)[C@H]3COC(=O)[C@H]23)OCO4)cc(OC)c1O [Etoposide]
active: [3] 0.752 | [7] 0.683 | [4] 1 | [9] 0.891 | [2] 0.71

NCCNc1ccc(NCCN)c2c1C(=O)c1ccncc1C2=O.O=C(O)/C=C\C(=O)O.O=C(O)/C=C\C(=O)O [Pixantrone dimaleate]
active: [3] 0.681 | [7] 0.513 | [8] 0.714 | [4] 0.742 | [5] 0.791 | [9] 0.656

COc1cc2c(Oc3ccc4[nH]c(C)cc4c3F)ccnc2cc1OCC1(N)CC1 [Anlotinib]
active: [9] 0.818 | [1] 0.621

CCN(CC)C(=S)SSC(=S)N(CC)CC [Disulfiram]
active: [3] 0.743 | [4] 0.834 | [5] 0.962 | [6] 0.732 | [9] 0.539

CC(C)C[C@H](NC(=O)CNC(=O)c1cc(Cl)ccc1Cl)B(O)O [Ixazomib]
active: [3] 0.999 | [7] 0.994 | [8] 0.918 | [4] 0.964 | [5] 0.99 | [6] 0.995 | [9] 1 | [1] 0.944 | [2] 0.994

Cl.Nc1ccn([C@@H]2O[C@H](CO)[C@@H](O)C2(F)F)c(=O)n1 [Gemcitabine HCl]
active: [3] 0.952 | [7] 0.999 | [8] 0.713 | [4] 0.677 | [5] 0.986 | [6] 0.696 | [9] 0.995 | [1] 0.747 | [2] 0.782

CC(C)C[C@H](NC(=O)[C@H](Cc1ccccc1)NC(=O)c1cnccn1)B(O)O [Bortezomib]
active: [3] 0.99 | [7] 0.986 | [8] 0.615 | [4] 0.858 | [5] 0.976 | [6] 0.746 | [9] 0.999 | [1] 1 | [2] 0.997

CCC1(O)C(=O)OCc2c1cc1n(c2=O)Cc2cc3cc(O)ccc3nc2-1 (stereo unspecified) [Hydroxy Camptothecine]
active: [3] 0.842 | [7] 0.985 | [4] 0.997 | [6] 0.53 | [9] 0.963

COc1cccc2c1C(=O)c1c(O)c3c(c(O)c1C2=O)C[C@@](O)(C(C)=O)C[C@@H]3O[C@H]1C[C@H](N)[C@H](O)[C@H](C)O1.Cl [Daunorubicin hydrochloride]
active: [7] 0.744 | [8] 0.716 | [4] 0.759 | [5] 0.999 | [6] 0.907 | [9] 0.998 | [1] 0.997 | [2] 0.776

Nc1ccn([C@@H]2O[C@H](CO)[C@@H](O)[C@@H]2O)c(=O)n1 [Cytarabine]
active: [3] 1 | [7] 0.993 | [4] 0.838 | [5] 0.741 | [6] 0.736 | [9] 1 | [1] 0.989 | [2] 0.692
